Reference: PubChem BioAssay AID1259254 (NCATS, 2017)

- Aim: 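Finding genes that stop cells copying their DNA twice in one cycle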 (primary screen)
- Cells: human HCT116 colorectal cancer cells
- Reagents: single siRNA against human genes
- Timing: 3 days
- Measurement: 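Imaged Hoechst DNA stain sorts each cell into a cycle phase by DNA amount; per plate, G2 fraction set to 0% for non-targeting and 100% for GMNN siRNA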
- Scale: G2 robust z-score: higher = more G2 cells, more excess DNA replication
- Call rule: 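An siRNA counts as active if its G2 robust z-score lies at least 5 MADs above the screen median; here such calls match roughly 38% of GMNN control or more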
The whole screen tested about 59,000 reagents; below is a part drawn at random. In the full data, about 1,550 (2.6%) were called active. 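G2 share is only a proxy for re-replication; each gene was hit by three separate siRNAs, and active genes were retested.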 Reagents against one gene are numbered here. Further read-outs or replicates are left out here. Not stated in the record: the amount of reagent.

C10orf143 #1 — G2 robust z-score: 1.05; Outcome: inactive
C10orf143 #2 — G2 robust z-score: 0.0753; Outcome: inactive
C10orf143 #3 — G2 robust z-score: -0.662; Outcome: inactive
ABO #1 — G2 robust z-score: 0.419; Outcome: inactive
ABO #2 — G2 robust z-score: -0.122; Outcome: inactive
ABO #3 — G2 robust z-score: 0.469; Outcome: inactive
NUSAP1 #1 — G2 robust z-score: 5.62; Outcome: active
NUSAP1 #2 — G2 robust z-score: -0.294; Outcome: inactive
NUSAP1 #3 — G2 robust z-score: -0.424; Outcome: inactive

Records listed so far whose target name begins with A or a (3):
ABO #1 — G2 robust z-score: 0.419; Outcome: inactive
ABO #2 — G2 robust z-score: -0.122; Outcome: inactive
ABO #3 — G2 robust z-score: 0.469; Outcome: inactive

The list goes on.
RAB38 #1 — G2 robust z-score: 0.0391; Outcome: inactive
RAB38 #2 — G2 robust z-score: 8.53; Outcome: active
RAB38 #3 — G2 robust z-score: -0.205; Outcome: inactive
ADAT2 #1 — G2 robust z-score: 0.478; Outcome: inactive
ADAT2 #2 — G2 robust z-score: -0.28; Outcome: inactive
ADAT2 #3 — G2 robust z-score: 0.729; Outcome: inactive
TUBB2A #1 — G2 robust z-score: 1.44; Outcome: inactive
TUBB2A #2 — G2 robust z-score: 1.02; Outcome: inactive
TUBB2A #3 — G2 robust z-score: 1.04; Outcome: inactive
